No constants are given. Whether binding was seen depends on the method and setting. Binding seen in cells or lysates may run through a third protein. Some binding calls cover weakened binding; strength is not graded here. Where a sequence is shown, tags or fusion partners need not be part of it.
How the values were obtained:
[1] = molecular target: T1, MSMEG_0736 (TtfA)-msfGFP, full length (Mycobacterium smegmatis) (UniProt A0QQF4); assay: co-IP; GFP-Trap magnetic agarose pulldown of msfGFP fusions from DDM-solubilized M. smegmatis lysates coexpressing MmpL3-mCherry, PBS, 4°C, washes with 0.1% DDM; blots with anti-RFP and anti-GFP; also after CRISPRi depletion of Pks13 (6 h ATc) or of MSMEG_5308 (24 h ATc)
T1 sequence: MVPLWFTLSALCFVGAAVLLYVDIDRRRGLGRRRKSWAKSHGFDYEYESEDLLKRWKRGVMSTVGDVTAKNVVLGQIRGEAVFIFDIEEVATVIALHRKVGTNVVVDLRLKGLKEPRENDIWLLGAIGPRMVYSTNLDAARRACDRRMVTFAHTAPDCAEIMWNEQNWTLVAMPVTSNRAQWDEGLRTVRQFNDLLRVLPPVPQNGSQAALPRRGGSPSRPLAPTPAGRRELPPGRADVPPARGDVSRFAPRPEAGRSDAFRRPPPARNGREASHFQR

[2] = molecular target: T2, MsTtfA(1-205aa)-msfGFP (Mycobacterium smegmatis) (UniProt A0QQF4); assay: as above
T2 sequence: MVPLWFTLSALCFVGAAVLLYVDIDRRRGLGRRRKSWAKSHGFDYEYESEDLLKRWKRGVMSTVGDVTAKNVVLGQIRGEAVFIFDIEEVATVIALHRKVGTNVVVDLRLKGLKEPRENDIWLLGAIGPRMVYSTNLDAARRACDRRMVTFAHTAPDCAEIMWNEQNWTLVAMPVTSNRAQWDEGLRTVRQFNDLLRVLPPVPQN

[3] = molecular target: T1, MSMEG_0736 (TtfA)-msfGFP, full length (Mycobacterium smegmatis); assay: condition: only Triton X-100-solubilized lysates of cells depleted of MSMEG_5308; co-IP; GFP-Trap magnetic agarose pulldown from Triton X-100-solubilized lysates of cells depleted of MSMEG_5308 by CRISPRi (24 h ATc), washes with 0.1% Triton X-100; blots with anti-RFP and anti-GFP
[4] = molecular target: T1, MSMEG_0736 (TtfA)-msfGFP, full length (Mycobacterium smegmatis); assay: co-IP; GFP-Trap magnetic agarose pulldown from Triton X-100-solubilized lysates, nontargeting CRISPRi control (MSMEG_5308 present), washes with 0.1% Triton X-100; blots with anti-RFP and anti-GFP

B1: MmpL3-mCherry (protein, UniProt A0QP27 1-1013)
chain: MFAWWGRTVYQFRYIVIGVMVALCLGGGVYGISLGNHVTQSGFYDEGSQSVAASLIGDEVYGRDRTSHVVAILTPPDDKKVTDKAWQKKVTEELDQVVKDHEDQIVGWVGWLKAPDTTDPTVSAMKTQDLRHTFISIPLQGDDDDEILKNYQVVEPELQQVNGGDIRLAGLNPLASELTGTIGEDQKRAEVAAIPLVAVVLFFVFGTVIAAALPAIIGGLAIAGALGIMRLVAEFTPVHFFAQPVVTLIGLGIAIDYGLFIVSRFREEIAEGYDTEAAVRRTVMTSGRTVVFSAVIIVASSVPLLLFPQGFLKSITYAIIASVMLAAILSITVLAAALAILGPRVDALGVTTLLKIPFLANWQFSRRIIDWFAEKTQKTKTREEVERGFWGRLVNVVMKRPIAFAAPILVVMVLLIIPLGQLSLGGISEKYLPPDNAVRQSQEQFDKLFPGFRTEPLTLVMKREDGEPITDAQIADMRAKALTVSGFTDPDNDPEKMWKERPANDSGSKDPSVRVIQNGLENRNDAAKKIDELRALQPPHGIEVFVGGTPALEQDSIHSLFDKLPLMALILIVTTTVLMFLAFGSVVLPIKAALMSALTLGSTMGILTWMFVDGHGSGLMNYTPQPLMAPMIGLIIAVIWGLSTDYEVFLVSRMVEARERGMSTAEAIRIGTATTGRLITGAALILAVVAGAFVFSDLVMMKYLAFGLLIALLLDATIIRMFLVPAVMKLLGDDCWWAPRWMKRVQEKLGLGETELPDERKRPTVRESETDQRALVGVGAPPPPPRPHDPTHPAPEPVRPMPPMRSNAPSAAGTARISTPPQPPQPPQAPAQQAGDEPATTRFAMARNAVRNAVNSAVHGGAGSAAAPTERAPRPGGPAQPPAPPQREEREIESWLGALRGPAPAKNVPQPPAQPQRPSTDTTRAMPPQGRPPAGPADRGNENAPTTAFSAQRPPNGGAPADATTAIPTPPQREQEPSTEKLNTREDAPEDPETKRRGGGMSAQDLLRREGRL
[1]
  binding: binds
[2]
  binding: binds
[3]
  binding: no binding
[4]
  binding: binds

From PMC6593404
